The exact form of at least one protein or probe is not confirmed. A negative result means that nothing was seen under these conditions.
Test system: Ubx (isoform Ia) + Exd (Extradenticle) + HthHM (Homothorax, homeodomain-less isoform)
Test: EMSA
Details: Ubx 200 or 250 ng/lane, Exd/HthHM 150 ng/lane, EMSA as previously described (ref 47), pH and temperature not given, recombinant protein, protein details: His-tag,His-tag

Chains of the proteins cited; added tags and fusions are not shown. A line that says so, or that is headed by a name, gives the form on record, which may keep a tag or linker.
Ubx (isoform Ia) + Exd (Extradenticle) + HthHM (Homothorax, homeodomain-less isoform), one chain, as listed by the source, chain 3 of 3: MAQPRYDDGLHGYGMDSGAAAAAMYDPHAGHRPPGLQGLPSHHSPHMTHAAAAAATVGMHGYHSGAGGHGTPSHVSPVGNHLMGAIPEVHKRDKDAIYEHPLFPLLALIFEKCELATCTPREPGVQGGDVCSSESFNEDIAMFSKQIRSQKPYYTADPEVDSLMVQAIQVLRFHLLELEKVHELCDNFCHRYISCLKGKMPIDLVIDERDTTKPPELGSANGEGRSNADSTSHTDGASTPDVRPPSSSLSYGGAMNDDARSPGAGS
Ubx (isoform Ia) + Exd (Extradenticle) + HthHM (Homothorax, homeodomain-less isoform), one chain, as listed by the source, chain 2 of 3: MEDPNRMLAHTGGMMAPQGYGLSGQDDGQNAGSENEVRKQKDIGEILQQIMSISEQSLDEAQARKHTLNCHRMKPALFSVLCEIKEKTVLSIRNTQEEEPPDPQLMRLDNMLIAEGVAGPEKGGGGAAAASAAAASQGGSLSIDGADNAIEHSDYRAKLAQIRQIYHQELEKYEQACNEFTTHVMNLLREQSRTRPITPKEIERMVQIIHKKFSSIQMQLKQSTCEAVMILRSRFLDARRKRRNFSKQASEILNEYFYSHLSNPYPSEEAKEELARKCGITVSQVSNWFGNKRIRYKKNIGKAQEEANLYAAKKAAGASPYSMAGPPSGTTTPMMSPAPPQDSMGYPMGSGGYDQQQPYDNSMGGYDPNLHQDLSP
Ubx (isoform Ia) + Exd (Extradenticle) + HthHM (Homothorax, homeodomain-less isoform), one chain, as listed by the source, chain 1 of 3: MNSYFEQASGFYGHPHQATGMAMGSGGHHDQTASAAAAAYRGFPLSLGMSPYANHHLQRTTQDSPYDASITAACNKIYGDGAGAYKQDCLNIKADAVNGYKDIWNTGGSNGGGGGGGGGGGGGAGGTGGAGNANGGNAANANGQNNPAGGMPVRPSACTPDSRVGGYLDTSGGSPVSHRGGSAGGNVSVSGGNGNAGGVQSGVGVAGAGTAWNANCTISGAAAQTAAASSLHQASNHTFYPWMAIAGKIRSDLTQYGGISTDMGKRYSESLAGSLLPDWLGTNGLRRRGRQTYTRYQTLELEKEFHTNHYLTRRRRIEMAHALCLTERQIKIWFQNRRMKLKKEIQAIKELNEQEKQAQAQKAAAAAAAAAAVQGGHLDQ

Sequence	binding result	binding result (binding lost)
CCTCGTCCCACAGCTCGAATATATTTTATAACCCGGAGCAAATGCAGCCA (double strand) [abxWT]	binds	
CCTCGTCCCACAGCTCGAATCCCCTTCCCCACCCGGAGCAAATGCAGCCA (double strand) [abxCluster1Kill]		no binding

Reference: article PMC6797233
